Reference: the supplement of paper PMC11732987, “Enantioselective OTUD7B fragment discovery through chemoproteomics screening and high-throughput optimisation” (Communications Chemistry, 2025)
Some of the results follow. The data scatter; read single values as rough.

Protein sequences, listed by entry. Tags and fused reporters are not part of them. Lines headed by an entry give the natural chain unless they say otherwise; changes in a name come on top. Residues count along the entry.
UniProt Q16186: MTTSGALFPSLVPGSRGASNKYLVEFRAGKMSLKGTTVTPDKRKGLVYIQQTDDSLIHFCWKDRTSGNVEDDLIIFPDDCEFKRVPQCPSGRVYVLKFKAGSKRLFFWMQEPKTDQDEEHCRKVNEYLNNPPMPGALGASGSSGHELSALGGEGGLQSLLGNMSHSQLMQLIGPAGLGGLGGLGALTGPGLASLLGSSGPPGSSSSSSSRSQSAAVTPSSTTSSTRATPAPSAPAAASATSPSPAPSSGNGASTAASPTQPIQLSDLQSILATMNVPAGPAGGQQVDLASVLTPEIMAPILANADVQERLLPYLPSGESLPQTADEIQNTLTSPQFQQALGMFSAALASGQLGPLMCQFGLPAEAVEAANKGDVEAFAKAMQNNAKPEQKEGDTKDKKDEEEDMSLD
UniProt Q9NP73: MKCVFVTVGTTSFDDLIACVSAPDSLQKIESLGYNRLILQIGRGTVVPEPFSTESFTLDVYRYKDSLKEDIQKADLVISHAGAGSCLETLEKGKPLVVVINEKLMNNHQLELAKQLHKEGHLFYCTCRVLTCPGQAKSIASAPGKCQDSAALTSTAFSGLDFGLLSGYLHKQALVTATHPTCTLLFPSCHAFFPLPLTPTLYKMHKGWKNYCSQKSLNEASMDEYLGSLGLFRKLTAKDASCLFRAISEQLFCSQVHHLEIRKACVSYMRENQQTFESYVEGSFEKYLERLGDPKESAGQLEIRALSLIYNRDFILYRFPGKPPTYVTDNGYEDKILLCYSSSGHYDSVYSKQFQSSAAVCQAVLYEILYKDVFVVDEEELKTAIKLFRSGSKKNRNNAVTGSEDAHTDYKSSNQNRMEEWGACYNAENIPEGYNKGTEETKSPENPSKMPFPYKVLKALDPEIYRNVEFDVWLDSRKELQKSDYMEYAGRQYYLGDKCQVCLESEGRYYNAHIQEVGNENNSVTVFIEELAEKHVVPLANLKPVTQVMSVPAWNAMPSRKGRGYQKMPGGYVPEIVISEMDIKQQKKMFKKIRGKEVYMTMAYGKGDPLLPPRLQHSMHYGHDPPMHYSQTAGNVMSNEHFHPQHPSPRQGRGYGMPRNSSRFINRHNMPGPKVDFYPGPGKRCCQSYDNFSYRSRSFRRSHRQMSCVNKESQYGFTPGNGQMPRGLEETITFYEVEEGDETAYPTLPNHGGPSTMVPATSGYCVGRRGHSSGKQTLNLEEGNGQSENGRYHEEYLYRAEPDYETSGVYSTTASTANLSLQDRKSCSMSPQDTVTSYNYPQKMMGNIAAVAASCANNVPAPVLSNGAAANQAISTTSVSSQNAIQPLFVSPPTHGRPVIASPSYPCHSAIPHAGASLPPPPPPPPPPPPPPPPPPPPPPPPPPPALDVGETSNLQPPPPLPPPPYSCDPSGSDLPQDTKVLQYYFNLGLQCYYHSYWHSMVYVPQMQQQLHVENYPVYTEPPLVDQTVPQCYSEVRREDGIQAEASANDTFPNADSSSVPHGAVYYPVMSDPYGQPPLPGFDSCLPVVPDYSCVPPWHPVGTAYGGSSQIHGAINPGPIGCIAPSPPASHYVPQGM
UniProt O43865, whole entry, looked up: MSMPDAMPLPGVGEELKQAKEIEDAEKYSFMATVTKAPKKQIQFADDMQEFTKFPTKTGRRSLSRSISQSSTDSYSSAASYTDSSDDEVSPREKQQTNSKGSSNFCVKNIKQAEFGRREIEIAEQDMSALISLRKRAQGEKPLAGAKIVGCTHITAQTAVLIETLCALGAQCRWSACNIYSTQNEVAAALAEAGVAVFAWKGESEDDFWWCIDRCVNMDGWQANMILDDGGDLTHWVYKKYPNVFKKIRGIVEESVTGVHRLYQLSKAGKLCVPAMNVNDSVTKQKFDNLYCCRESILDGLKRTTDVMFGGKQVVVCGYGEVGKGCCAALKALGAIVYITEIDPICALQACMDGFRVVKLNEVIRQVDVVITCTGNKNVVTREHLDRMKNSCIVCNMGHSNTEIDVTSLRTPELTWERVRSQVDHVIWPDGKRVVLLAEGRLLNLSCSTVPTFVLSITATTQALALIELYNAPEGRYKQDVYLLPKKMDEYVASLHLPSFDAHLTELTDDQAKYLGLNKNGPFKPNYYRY
UniProt Q12802: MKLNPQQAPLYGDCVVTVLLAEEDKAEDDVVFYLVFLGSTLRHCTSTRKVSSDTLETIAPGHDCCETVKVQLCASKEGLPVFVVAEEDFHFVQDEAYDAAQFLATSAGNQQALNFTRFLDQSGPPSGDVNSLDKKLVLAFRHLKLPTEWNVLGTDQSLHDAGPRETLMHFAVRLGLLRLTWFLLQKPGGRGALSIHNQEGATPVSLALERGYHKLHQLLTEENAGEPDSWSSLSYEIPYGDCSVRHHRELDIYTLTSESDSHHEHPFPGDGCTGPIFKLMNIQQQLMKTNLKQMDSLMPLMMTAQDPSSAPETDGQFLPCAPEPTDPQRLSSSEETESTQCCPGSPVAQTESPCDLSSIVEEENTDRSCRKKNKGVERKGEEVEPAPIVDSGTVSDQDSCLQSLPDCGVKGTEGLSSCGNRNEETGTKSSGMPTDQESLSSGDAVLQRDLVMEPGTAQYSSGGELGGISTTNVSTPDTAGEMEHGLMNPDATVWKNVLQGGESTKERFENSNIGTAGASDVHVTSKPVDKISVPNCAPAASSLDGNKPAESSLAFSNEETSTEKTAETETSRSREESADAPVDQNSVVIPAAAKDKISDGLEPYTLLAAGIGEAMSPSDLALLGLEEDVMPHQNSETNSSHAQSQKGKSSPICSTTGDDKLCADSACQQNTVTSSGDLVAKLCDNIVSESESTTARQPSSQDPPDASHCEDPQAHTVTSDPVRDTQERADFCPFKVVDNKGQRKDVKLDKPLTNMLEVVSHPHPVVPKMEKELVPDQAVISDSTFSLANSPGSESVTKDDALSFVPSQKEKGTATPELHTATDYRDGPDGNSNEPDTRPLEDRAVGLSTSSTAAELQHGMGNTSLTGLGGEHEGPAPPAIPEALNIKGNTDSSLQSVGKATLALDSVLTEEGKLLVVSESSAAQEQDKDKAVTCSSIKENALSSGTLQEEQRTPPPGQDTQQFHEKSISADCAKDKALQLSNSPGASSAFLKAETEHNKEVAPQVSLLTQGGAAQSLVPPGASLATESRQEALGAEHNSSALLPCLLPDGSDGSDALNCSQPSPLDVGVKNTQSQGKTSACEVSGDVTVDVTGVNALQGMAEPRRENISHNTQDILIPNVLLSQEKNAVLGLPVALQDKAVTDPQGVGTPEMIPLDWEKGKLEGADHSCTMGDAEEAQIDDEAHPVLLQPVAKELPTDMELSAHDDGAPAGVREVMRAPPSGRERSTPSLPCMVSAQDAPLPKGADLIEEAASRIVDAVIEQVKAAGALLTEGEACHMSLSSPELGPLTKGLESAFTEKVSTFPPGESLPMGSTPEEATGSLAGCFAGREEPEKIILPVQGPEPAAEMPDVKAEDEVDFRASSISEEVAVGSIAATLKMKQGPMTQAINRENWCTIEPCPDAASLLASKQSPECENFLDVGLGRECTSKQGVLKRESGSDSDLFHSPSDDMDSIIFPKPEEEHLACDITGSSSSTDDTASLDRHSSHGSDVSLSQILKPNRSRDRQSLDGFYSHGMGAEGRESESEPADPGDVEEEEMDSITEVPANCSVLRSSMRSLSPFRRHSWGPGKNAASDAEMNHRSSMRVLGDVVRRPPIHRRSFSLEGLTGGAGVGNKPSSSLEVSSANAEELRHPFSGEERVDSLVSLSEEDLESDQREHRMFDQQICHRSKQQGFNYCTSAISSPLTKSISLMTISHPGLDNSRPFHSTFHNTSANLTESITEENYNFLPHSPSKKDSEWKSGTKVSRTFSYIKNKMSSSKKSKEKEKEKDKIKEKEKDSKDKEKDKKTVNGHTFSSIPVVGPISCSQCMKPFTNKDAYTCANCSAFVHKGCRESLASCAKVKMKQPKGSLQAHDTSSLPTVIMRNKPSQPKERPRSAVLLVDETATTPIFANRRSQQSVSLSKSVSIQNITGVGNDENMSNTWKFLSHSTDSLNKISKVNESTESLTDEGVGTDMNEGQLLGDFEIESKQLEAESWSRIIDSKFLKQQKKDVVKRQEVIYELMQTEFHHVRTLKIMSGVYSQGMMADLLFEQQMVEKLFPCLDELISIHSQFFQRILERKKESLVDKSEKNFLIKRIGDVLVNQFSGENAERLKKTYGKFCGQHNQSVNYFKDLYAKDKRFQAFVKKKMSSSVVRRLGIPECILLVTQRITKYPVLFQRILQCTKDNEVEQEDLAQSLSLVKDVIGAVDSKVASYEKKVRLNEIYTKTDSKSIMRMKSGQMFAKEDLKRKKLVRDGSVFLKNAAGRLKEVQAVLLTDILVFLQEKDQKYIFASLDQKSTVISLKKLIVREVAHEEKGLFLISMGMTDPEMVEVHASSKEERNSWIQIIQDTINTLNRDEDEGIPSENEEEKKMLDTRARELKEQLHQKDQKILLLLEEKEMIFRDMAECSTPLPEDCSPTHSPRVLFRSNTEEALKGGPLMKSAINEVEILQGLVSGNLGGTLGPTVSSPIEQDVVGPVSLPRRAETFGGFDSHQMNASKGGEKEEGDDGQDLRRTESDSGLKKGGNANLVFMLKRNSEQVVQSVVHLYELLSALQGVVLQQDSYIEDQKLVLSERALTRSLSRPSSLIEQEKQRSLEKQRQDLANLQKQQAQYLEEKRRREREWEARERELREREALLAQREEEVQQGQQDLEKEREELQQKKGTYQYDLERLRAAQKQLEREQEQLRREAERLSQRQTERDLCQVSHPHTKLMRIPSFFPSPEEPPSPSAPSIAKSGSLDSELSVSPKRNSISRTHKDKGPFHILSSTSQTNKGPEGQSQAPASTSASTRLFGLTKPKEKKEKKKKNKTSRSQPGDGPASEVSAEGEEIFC
UniProt Q53H12: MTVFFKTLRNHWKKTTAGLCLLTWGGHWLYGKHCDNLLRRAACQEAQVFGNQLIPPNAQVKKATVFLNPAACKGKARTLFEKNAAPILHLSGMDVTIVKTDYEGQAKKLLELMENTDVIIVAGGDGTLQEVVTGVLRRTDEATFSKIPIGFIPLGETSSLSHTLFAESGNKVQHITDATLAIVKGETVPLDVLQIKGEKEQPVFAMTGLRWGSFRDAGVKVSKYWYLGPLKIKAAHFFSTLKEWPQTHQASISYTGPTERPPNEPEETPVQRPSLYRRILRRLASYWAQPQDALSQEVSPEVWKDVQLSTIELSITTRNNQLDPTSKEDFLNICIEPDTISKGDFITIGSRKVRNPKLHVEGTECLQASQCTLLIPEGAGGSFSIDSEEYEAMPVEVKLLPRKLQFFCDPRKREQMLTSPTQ
UniProt P30520, 2-22: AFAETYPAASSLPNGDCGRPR
UniProt P55265: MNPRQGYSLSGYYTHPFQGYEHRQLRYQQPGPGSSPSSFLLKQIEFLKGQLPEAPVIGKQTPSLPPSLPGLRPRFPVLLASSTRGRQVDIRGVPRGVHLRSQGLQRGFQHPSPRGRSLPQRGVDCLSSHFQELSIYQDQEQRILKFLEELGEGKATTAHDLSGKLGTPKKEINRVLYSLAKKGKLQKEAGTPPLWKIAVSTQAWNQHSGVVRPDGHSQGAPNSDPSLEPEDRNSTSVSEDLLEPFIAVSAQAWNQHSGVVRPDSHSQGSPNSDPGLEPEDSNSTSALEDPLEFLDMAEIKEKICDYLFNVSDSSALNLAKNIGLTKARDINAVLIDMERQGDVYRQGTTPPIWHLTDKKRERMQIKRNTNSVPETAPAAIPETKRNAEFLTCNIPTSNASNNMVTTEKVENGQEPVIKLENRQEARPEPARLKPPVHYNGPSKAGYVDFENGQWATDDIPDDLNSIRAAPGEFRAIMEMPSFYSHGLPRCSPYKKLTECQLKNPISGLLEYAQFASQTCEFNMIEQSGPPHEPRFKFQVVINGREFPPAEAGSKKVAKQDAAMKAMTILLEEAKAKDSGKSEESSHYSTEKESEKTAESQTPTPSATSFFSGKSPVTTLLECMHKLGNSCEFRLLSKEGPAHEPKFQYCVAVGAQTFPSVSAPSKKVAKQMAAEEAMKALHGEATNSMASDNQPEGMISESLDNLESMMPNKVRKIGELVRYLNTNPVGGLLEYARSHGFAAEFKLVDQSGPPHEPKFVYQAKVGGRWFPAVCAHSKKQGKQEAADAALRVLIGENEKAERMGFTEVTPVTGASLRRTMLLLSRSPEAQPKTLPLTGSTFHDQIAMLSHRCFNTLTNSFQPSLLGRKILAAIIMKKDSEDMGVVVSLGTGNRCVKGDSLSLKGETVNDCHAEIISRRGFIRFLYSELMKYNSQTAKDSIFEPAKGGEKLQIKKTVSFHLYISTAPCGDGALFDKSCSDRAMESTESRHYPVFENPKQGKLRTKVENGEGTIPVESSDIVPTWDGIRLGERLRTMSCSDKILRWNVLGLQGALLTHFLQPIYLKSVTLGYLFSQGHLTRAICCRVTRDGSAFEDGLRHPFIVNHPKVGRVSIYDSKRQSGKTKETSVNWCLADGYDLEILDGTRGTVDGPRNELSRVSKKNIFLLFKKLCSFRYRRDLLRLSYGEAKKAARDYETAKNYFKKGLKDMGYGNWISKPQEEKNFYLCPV
UniProt P00568, 172-194: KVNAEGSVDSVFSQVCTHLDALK

compound: ClCC(=O)N[C@H]1CCCc2ccccc12; assay: log2 mean competition ratio of IA-DTB cysteine labelling (DMSO/compound) (log2 ratio); higher = stronger cysteine engagement by compound; settings: 50 µM; treatment time: 4 h; cell line lysate: HEK293T
Procedure: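 IA-DTB competitive cysteine chemoproteomics in HEK293T RIPA lysate. Lysates were treated with compound 29 or 30 at 50 or 200 µM for 4 h, then IA-DTB (500 µM, 1 h), trypsin-digested, NeutrAvidin-enriched and analysed by diaPASEF. Competition ratio = intensity DMSO / intensity compound (n=4 treated, n=64 DMSO); binding: mean log2 CR ≥ 1 and p ≤ 0.05 plus QC filters. Target is the cysteine site.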

| Target | log2 mean competition ratio |
| --- | --- |
| AHNAK C1900(C1967) (UniProt Q09666) | -0.02 |
| AKAP9 C2765 (UniProt Q99996) | -0.296 |
| ADRM1 C88 (UniProt Q16186) | -0.24 |
| ALG13 C86 (UniProt Q9NP73) | 0.165 |
| AJUBA C338 (UniProt Q96IF1) | -0.0669 |
| AHDC1 C791 (UniProt Q5TGY3) | -0.0381 |
| AHCYL1 C106 (UniProt O43865) | 0.281 |
| AKAP13 C73 (UniProt Q12802) | 0.195 |
| ANK2 C1425 (UniProt Q01484) | -0.0961 |
| AGK C334 (UniProt Q53H12) | -0.39 |
| ALG13 C424 (UniProt Q9NP73) | 1.52 |
| AGGF1 C307 (UniProt Q8N302) | -0.53 |
| ALPK1 C512 (UniProt Q96QP1) | 0.118 |
| ALDH5A1 C272 (UniProt P51649) | -0.0507 |
| ANAPC4 C697 (UniProt Q9UJX5) | -0.198 |
| AKAP13 C2685 (UniProt Q12802) | -0.164 |
| AMOTL1 C623 (UniProt Q8IY63) | -0.101 |
| ADSS2 C18 (UniProt P30520) | 0.261 |
| ADAR C499 (UniProt P55265) | 0.911 |
| AK1 C187 (UniProt P00568) | -0.00748 |

same assay, conditions: 200 µM; treatment time: 4 h; cell line lysate: HEK293T

| Target | log2 mean competition ratio |
| --- | --- |
| AHNAK C1900(C1967) (UniProt Q09666) | 0.00134 |
| AKAP9 C2765 (UniProt Q99996) | 0.254 |
| ADRM1 C88 (UniProt Q16186) | -0.113 |
| ALG13 C86 (UniProt Q9NP73) | -0.157 |
| AJUBA C338 (UniProt Q96IF1) | 0.251 |
| AHDC1 C791 (UniProt Q5TGY3) | -0.0152 |
| AHCYL1 C106 (UniProt O43865) | -0.274 |
| AKAP13 C73 (UniProt Q12802) | -0.254 |
| ANK2 C1425 (UniProt Q01484) | 0.153 |
| AGK C334 (UniProt Q53H12) | 0.202 |
| ALG13 C424 (UniProt Q9NP73) | -0.025 |
| AGGF1 C307 (UniProt Q8N302) | 0.00976 |
| ALPK1 C512 (UniProt Q96QP1) | -0.299 |
| ALDH5A1 C272 (UniProt P51649) | -0.00771 |
| ANAPC4 C697 (UniProt Q9UJX5) | -0.191 |
| AKAP13 C2685 (UniProt Q12802) | 0.0487 |
| AMOTL1 C623 (UniProt Q8IY63) | -0.0921 |
| ADSS2 C18 (UniProt P30520) | -0.00603 |
| ADAR C499 (UniProt P55265) | 0.194 |
| AK1 C187 (UniProt P00568) | 0.0433 |
